According to paper PMC6555833, “APC/C^CDH1 synchronizes ribose-5-phosphate levels and DNA synthesis to cell cycle progression” (Nature Communications, 2019):
No constants are given. Whether binding was seen depends on the method and setting. Binding seen in cells or lysates may run through a third protein. A yes stands for co-enrichment or nearness to the bait. Other partners may have been found. Tags and fused reporters may be left off the sequences shown.

Legend:
SBP-Flag-TKTL1 (human) = molecular target: T1, SBP-Flag-TKTL1 (human) (UniProt P51854); assay: affinity purification with mass spectrometry; tandem affinity purification; 293T cells stably expressing SBP-Flag bait; 0.1% NP40 buffer; SBP beads 3 h at 4 °C; on-bead tryptic digestion
T1 sequence: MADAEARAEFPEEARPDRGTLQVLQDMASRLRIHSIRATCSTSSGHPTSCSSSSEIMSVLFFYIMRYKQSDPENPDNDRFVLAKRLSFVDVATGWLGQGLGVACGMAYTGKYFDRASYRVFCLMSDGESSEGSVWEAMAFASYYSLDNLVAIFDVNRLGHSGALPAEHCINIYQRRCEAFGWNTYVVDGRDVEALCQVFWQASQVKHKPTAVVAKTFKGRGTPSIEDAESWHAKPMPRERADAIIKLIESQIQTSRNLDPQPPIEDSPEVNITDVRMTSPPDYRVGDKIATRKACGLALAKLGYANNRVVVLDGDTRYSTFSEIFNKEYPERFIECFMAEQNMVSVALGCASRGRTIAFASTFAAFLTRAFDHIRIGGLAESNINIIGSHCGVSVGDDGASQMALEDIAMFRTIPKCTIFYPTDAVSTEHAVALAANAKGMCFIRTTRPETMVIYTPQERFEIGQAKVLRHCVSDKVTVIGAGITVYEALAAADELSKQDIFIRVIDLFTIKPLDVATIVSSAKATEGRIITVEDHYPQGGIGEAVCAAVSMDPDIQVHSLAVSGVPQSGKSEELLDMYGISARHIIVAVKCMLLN

SBP-Flag-TKT (human) = molecular target: T2, SBP-Flag-TKT (human) (UniProt P29401); assay: as above
T2 sequence: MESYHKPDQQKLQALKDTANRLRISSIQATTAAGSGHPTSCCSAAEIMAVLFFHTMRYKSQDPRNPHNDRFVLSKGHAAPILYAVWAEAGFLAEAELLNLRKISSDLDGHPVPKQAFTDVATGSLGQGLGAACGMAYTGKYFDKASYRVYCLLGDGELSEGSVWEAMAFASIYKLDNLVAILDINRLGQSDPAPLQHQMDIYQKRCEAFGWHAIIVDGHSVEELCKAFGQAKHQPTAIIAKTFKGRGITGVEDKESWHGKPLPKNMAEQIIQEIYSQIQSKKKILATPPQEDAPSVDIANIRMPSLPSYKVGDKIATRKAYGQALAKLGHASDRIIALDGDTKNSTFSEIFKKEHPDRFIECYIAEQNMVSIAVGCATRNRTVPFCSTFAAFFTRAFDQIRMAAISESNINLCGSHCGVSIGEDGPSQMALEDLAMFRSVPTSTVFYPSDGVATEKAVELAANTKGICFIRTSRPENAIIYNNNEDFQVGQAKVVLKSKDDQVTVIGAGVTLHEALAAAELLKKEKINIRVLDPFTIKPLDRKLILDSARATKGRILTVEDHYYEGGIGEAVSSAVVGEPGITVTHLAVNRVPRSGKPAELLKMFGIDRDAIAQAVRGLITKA

B1: purified recombinant TKT (natural protein, human, UniProt P29401 1-623, looked up)
chain: T2 sequence
notes: wild-type transketolase (TKT), human; in vector pSJ3; also called TKT homodimer; TKT-TKT; source: E. coli BL21 (DE3)pLysS, purified (nickel column)
binding (SBP-Flag-TKTL1 (human)): binds

B2: purified recombinant TKTL1 (natural protein, human, UniProt P51854 1-596, looked up)
chain: T1 sequence
notes: wild-type transketolase-like protein 1 (TKTL1), human; in vector pSJ3; also called TKTL1 monomer; source: E. coli BL21 (DE3)pLysS, purified (nickel column)
binding (SBP-Flag-TKT (human)): binds
